From patent US5883102A, “Pharmaceutically active compounds” (Astra Pharmaceuticals Limited, priority 1995, dated 1999)
Where a name gives a salt, the structure may show the parent alone. Some entries share one result that the patent states for a list of compounds.

molecular target: T1, human form of induced nitric oxide synthase (Homo sapiens, UniProt P35228); assay: activity against the human form of induced nitric oxide synthase, lysate of induced human colon adenocarcinoma cell line DLD1; type: biochemical; details: IL-1β and IFN-γ induced, preincubated 1 hour at 37° C., then 1 hour at 37° C., read-out: IC50 (concentration of drug substance which gives 50% enzyme inhibition in the assay)
T1 construct: Nitric oxide synthase is produced by cells in response to interferon; endogenous in cells; host or cells: DLD1 human colon adenocarcinoma cell line (European Collection of Animal Cell Culture, cell line number 90102540), induced with IL-1beta and IFN-gamma; crude lysate

| Structure (SMILES) | IC50 |
| --- | --- |
| NC1=NC2(CCN(C(=O)c3ccccc3)CC2)Nc2ccccc21 [Example 177, 1-Benzoylspiro[piperidine-4,2'(1'H)-quinazoline]-4'-amine hydrochloride] | < 25 µM |
| N#Cc1ccc(C(=S)N2CCC3(CC2)N=C(N)c2c(F)cccc2N3)cc1 [Example 155, 1-((4-Cyanopheyl)thioxomethyl)-5'-fluorospiro[piperidine-4,2'(1'H)-quinazoline]-4'-amine hydrochloride] | < 25 µM |
| CC(C)C1N=C(N)c2c(F)cccc2N1 (stereo not shown) [Example 42, 5-Fluoro-1,2-dihydro-2-(1-methylethyl)-4-quinazolinamine hydrochloride] | < 25 µM |
| NC1=NC(C2CC2)Nc2ccccc21 (stereo not shown) [Example 5, 2-Cyclopropyl-1,2-dihydro-4-quinazolinamine hydrochloride] | < 25 µM |
| NC1=NC2(CCN(C(=O)OCCCn3ccccc3=O)CC2)Nc2cccc(F)c21 [Example 232, 3-(2-oxo-1(2H)-pyridyl)propyl 4'-amino-5'-fluorospiro[piperidine-4,2'(1'H) -quinazoline]-1-carboxylate hydrochloride] | < 25 µM |
| CCOC(=O)N1CCC2(C1)N=C(N)c1ccccc1N2 (stereo not shown) [Example 188, Ethyl 4'-aminospiro[pyrrolidine-3,2'(1'H)-quinazoline]-1-carboxylate hydrochloride] | < 25 µM |
| NC1=NC2(CCN(C(=O)OCCOCc3ccccc3)CC2)Nc2cccc(F)c21 [Example 230, 2-(Phenylmethoxy)ethyl 4'-amino-5'-fluorospiro[piperidine-4,2'(1'H)-quinazoline]-1-carboxylate hydrochloride] | < 25 µM |
| NC1=NC2(CCN(C(=O)OCCc3cccs3)CC2)Nc2cccc(F)c21 [Example 227, 2-(2-Thienyl)ethyl 4'-amino-5'-fluorospiro[piperidine-4,2'(1'H)-quinazoline]-1-carboxylate hydrochloride] | < 25 µM |
| NC1=NC(c2cccc(O)c2)Nc2cccc(F)c21 (stereo not shown) [Example 32, 5-Fluoro-1,2-dihydro-2-(3-hydroxyhenyl)-4-quinazolinamine hydrochloride] | < 25 µM |
| Cc1cnc(C(=O)N2CCC3(CC2)N=C(N)c2c(F)cccc2N3)cn1 [Example 146, 5'-Fluoro-1-(5-methyl-2-pyrazinylcarbonyl)spiro[piperidine-4.2'(1'H)-quinazoline]-4'-amine hydrochloride] | < 25 µM |
| NC1=NC2(CCN(C(=O)OCCNc3ccccc3)CC2)Nc2cccc(F)c21 [Example 222, 2-(Phenylamino)ethyl 4'-amino-5'-fluorospiro[piperidine-4,2'(1'H)-quinazoline]-1-carboxylate hydrochloride] | < 25 µM |
| N#Cc1ccc(C(=O)N2CCC3(CC2)N=C(N)c2c(F)cccc2N3)cc1 [Example 102, 1-(4-Cyanobenzoyl)-5'-fluorospiro[piperidine-4,2'(1'H)-quinazoline]-4'-amine hydrochloride] | < 25 µM |
| COc1ccc(NC(=O)c2ccc(C(=O)N3CCC4(CC3)N=C(N)c3c(F)cccc3N4)cc2)cc1 [Example 117, 4-(4'-Amino-5'-fluorospiro[piperidine-4,2'(1'H)-quinazoline]-1-ylcarbonyl)-N-(4-methoxyphenyl)benzamide hydrochloride] | < 25 µM |
| NC1=NC2(CCN(C(=O)c3csc(Br)c3)CC2)Nc2cccc(F)c21 [Example 127, 1-(5-Bromo-3-thienylcarbonyl)-5'-fluorospiro[piperidine-4,2'(1'H)-quinazoline]-4'-amine hydrochloride] | < 25 µM |
| CCOC(=O)n1ccc(C2N=C(N)c3c(F)cccc3N2)c1 (stereo not shown) [Example 34, Ethyl 3-(4-Amino-5-fluoro-1,2-dihydroquinazolin-2-yl)-1H-pyrrole-1-carboxylate hydrochloride] | < 25 µM |
| NC1=NC(c2ccccc2)Nc2cccc(F)c21 (stereo not shown) [Example 29, 5-Fluoro-1,2-dihydro-2-phenyl-4-quinazolinamnine hydrochloride] | < 25 µM |
| NC1=NC2(CCN(C(=O)c3nccs3)CC2)Nc2ccccc21 [Example 54, 1-(2-Thiazolylcarbonyl)spiro[piperidine-4,2'(1'H)-quinazoline]-4'-amine hydrochloride] | < 25 µM |
| NC1=NC2(CCN(C(=O)OCc3cc4ccccc4o3)CC2)Nc2cccc(F)c21 [Example 225, 2-Benzofuranylmethyl 4'-amino-5'-fluorospiro[piperidine-4,2'(1'H)-quinazoline]-1-carboxylate hydrochloride] | < 25 µM |
| NC1=NC(c2ccccc2O)Nc2cccc(F)c21 (stereo not shown) [Example 31, 5-Fluoro-1,2-dihydro-2-(2-hydroxyphenyl)-4-quinazolinamine hydrochloride] | < 25 µM |
| NC1=NC2(CCN(C(=O)c3ccc(Cl)cc3)CC2)Nc2c(F)ccc(F)c21 [Example 163, 1-(4-Chlorobenzoyl)-5',8'-difluorospiro[piperidine-4,2'(1'H)-quinazoline-]4'-amine hydrochloride] | < 25 µM |

| Structure (SMILES) | IC50 |
| --- | --- |
| CN1c2cccc(F)c2C(N)=NC12CCN(C(=O)OCCCCCl)CC2 [Example 238, 4-Chlorobutyl 4'-amino-5'-fluoro-1'-methylspiro piperidine-4,2'-[1'H]-quinazoline]-1-carboxylate hydrochloride] | < 25 µM |
| NC1=NC2(CCN(C(=O)OC3CCC3)CC2)Nc2cccc(F)c21 [Example 200, Cyclobutyl 4'-amino-5'-fluorospiro[piperidine-4,2'(1'H)-quinazoline]-1-carboxylate hydrochloride] | < 25 µM |
| NC1=NC2(CCN(C(=O)c3ccc([N+](=O)[O-])cc3)CC2)Nc2ccccc21 [Example 57, 1-(4-Nitrobenzoyl)spiro[piperidine-4,2'(1'H)-quinazoline]-4'-amine hydrochloride] | < 25 µM |
| CN1c2cccc(F)c2C(N)=NC12CCN(C(=O)c1cccs1)CC2 [Example 159, 5'-Fluoro-1'-methyl-1-(2-thienylcarbonyl)spiro[piperidine-4,2'(1'H)-quinazoline]-4'-amine hydrochloride] | < 25 µM |
| NC1=NC(c2ccco2)Nc2cccc(Cl)c21 (stereo not shown) [Example 27, 5-Chloro-2-(2-furyl)-1,2-dihydro-4-quinazolinamine hydrochloride] | < 25 µM |
| NC1=NC2(CCN(C(=O)c3ccc(Cl)nc3)CC2)Nc2cccc(F)c21 [Example 143, 1-(6-Chloro-3-pyridylcarbonyl)-5'-fluorospiro[piperidine-4,2'(1'H)-quinazoline]-4'-amine hydrochloride] | < 25 µM |
| NC1=NC2(CCN(C(=O)c3ccc(N)cc3)CC2)Nc2ccccc21 [Example 255, 1-(4-Aminobenzoyl)spiro[piperidine-4,2'(1'H)-quinazoline]-4'-amine dihydrochloride] | < 25 µM |
| NC1=NC2(CCN(C(=O)OCCSc3ccccn3)CC2)Nc2cccc(F)c21 [Example 220, 2-(2-Pyrdylthioethyl 4'-amino-5'-fluorospiro[piperidine-4,2'(1'H)-quinazoline]-1-carboxylate hydrochloride] | < 25 µM |
| NC1=NC2(CCN(C(=O)c3cccc(N)c3)CC2)Nc2ccccc21 [Example 256, 1-(3-Aminobenzoyl)spiro[piperidine-4,2'(1'H)-quinazolinel-4'-amine hydrochloride] | < 25 µM |
| NC1=NC2(CCN(C(=O)c3ccc(-n4cccc4)cc3)CC2)Nc2ccccc21 [Example 91, 1-(4-(1H-Pyrrol-1-yl)benzoyl)spiro[piperidine-4,2'(1'H)-quinazoline]-4'-amine hydrochloride] | < 25 µM |
| C#CCCOC(=O)N1CCC2(CC1)N=C(N)c1c(F)cccc1N2 [Example 202, But-3-yn-1-yl 4'-amino-5'-fluorospiro[piperdine-4,2'(1'H)-quinazoline]-1-carboxylate hyochloride] | < 25 µM |
| NC1=NC2(CCN(C(=O)c3cnccn3)CC2)Nc2c(F)ccc(F)c21 [Example 165, 5',8'-Difluoro-1-(2-pyrazinylcarbonyl)spiro[piperidine-4,2'(1'H)-quinazoline]-4'-amine hydrochloride] | < 25 µM |
| CCOC(=O)N1CCC2(CC1)N=C(N)c1c(cccc1OC)N2 [Example 182, Ethyl 4'-amino-5'-methoxyspiro[piperidine-4,2'(1'H)-quinazoline]-1-carboxylate hydrochloride] | < 25 µM |
| NC1=NC(c2nccs2)Nc2cccc(F)c21 (stereo not shown) [Example 36, 5-Fluoro-1,2-dihydro-2-(2-thiazolyl)-4-quinazolinamine hydrochloride] | < 25 µM |
| NC1=NC(c2ccc(F)cc2)Nc2cccc(F)c21 (stereo not shown) [Example 37, 5-Fluoro-2-(4-fluorophenyl)-1.2-dihydro-4-quinazolinamine hydrochloride] | < 25 µM |
| NC1=NC2(CCN(C(=O)c3ccc4ncccc4c3)CC2)Nc2cccc(F)c21 [Example 149, 5'-Fluoro-1-(6-quinolylcarbonyl)spiro[piperidine-4,2'(1'H)-quinazoline]-4'-amine hydrochloride] | < 25 µM |
| NC1=NC2(CCN(C(=O)OCCCCCl)CC2)Nc2c(F)ccc(F)c21 [Example 237, 4-Chlorobutyl 4'-amino-5',8'-difluorospiro[piperidine-4,2'(1'H)-quinazoline]-1-carboxylate hydrochloride] | < 25 µM |
| Cc1ncsc1CCOC(=O)N1CCC2(CC1)N=C(N)c1c(F)cccc1N2 [Example 235, 2-(4-Methyl-5-thiazolyl)ethyl 4'-amino-5'-fluorospiro[piperidine-4,2'(1'H) -quinazoline]-1-carboxylate hydrochloride] | < 25 µM |
| NC1=NC2(CCN(C(=O)OCCCc3cccs3)CC2)Nc2cccc(F)c21 [Example 228, 3-(2-Thienyl)propyl 4'-amino-5'-fluorospiro[piperidine-4,2'(1'H)-quinazoline]-1-carboxylate hydrochloride] | < 25 µM |
| NC1=NC2(CCN(C(=O)OCCCC(F)(F)F)CC2)Nc2cccc(F)c21 [Example 206, 4.4.4-Trifluorobutyl 4'-amino-5'-fluorospiro[piperidine-4,2'(1'H)-quinazoline]-1-carboxylate hydrochloride] | < 25 µM |
